For at least one compound, name, drawing or mass did not settle the structure.
Key:
Assay in all cases: Suspension test of biocide with or without perlite, 1 minute contact
[1] = tested on: Pseudomonas aeruginosa ATCC 15442
[2] = tested on: Staphylococcus aureus ATCC 6538
[3] = tested on: Aspergillus brasiliensis ATCC 16404

Compound: O=c1nc([O-])n(Cl)c(=O)n1Cl.[Na+] [Sodium Dichloroisocyanurate, sodium dichloroisocyanurate]
- Vc viable count ([1]; dilution −1, duplicate plates): 236; 160 cfu
- Vc viable count ([1]; dilution −2, duplicate plates): 60; 34 cfu
- Vc viable count ([1]; dilution −3, duplicate plates): 33; 35 cfu
- Vc viable count ([1]; dilution −4, duplicate plates): 10; 14 cfu
- Vc viable count ([1]; dilution −5, duplicate plates): 2; 9 cfu
- Vc viable count ([2]; dilution −1, duplicate plates): 1; 0 cfu
- Vc viable count ([2]; dilution −2, duplicate plates): 0; 11 cfu
- Vc viable count ([2]; dilution −3, duplicate plates): 2; 0 cfu
- Vc viable count ([2]; dilution −4, duplicate plates): 0; 0 cfu
- Vc viable count ([3]; dilution −1, duplicate plates): 117; 114 cfu
- Vc viable count ([3]; dilution −2, duplicate plates): 38; 49 cfu
- Vc viable count ([3]; dilution −3, duplicate plates): 9; 6 cfu
- Vc viable count ([3]; dilution −4, duplicate plates): 0; 1 cfu
- Vc viable count ([3]; dilution −5, duplicate plates): 0; 0 cfu

From patent publication US12213480B2, “Biocidal formulation” (For Spills Ltd., priority 2018, dated 2025)
